Source: PubChem BioAssay AID504786 (Drosophila RNAi Screening Center, 2011)
Screen: 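Positive regulators of HIF-driven reporter output in Drosophila cells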 (primary screen). System: Drosophila S2 cells with a stable HIF luciferase reporter. Reagent: long dsRNA against Drosophila genes, about 0.2 µg dsRNA per well of a 384-well plate. Duration: three days of knock-down, then 20 h of DFO before reading. Challenge: desferrioxamine (DFO) at 100 µM, an iron chelator that mimics hypoxia, for 20 h. Measurement: 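Firefly luciferase driven by the mouse ldh-a hypoxia-response element, measured after 20 h of 100 µM DFO; z-scores per plate, higher means more signal lost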. Reading the numbers: z-score: higher = stronger loss of HIF reporter signal.
The deposit covers about 21,000 reagents; shown is a random part of those with a known target gene and a result. 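Primary screen; positive scores mean lost reporter signal, so the sign may be inverted from the usual convention.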 A plus sign joins genes that one reagent is predicted to hit.

target	DRSC id	z-score, replicate 1	z-score, replicate 2	z-score, replicate 3	z-score, replicate 4
CSN6	DRSC16593	2.2	4.3		
CG8738	DRSC07256	-0.2	-0.6		
CG34248	DRSC09426	0.1	-0.1		
HtrA2	DRSC16425	-0.1	-0.2		
Lip4	DRSC02930	-0.2	0.2		
CG6683	DRSC10694	-0.4	-0.4		
CG14451	DRSC11708	-0.1	0.2		
CG33269	DRSC10585	-0.4	-0.5		
Osi17	DRSC12284	0.1	0.4		
CG11537	DRSC08200	-0.2	-0.3		
Jon65Aiii	DRSC10649	-0.3	-0.5		
Idgf5	DRSC06919	0	0.1		
CG18011	DRSC06697	-0.5	-0.6		
CG18011	DRSC06706	-0.2	-0.3		
MFS16	DRSC04051	-0.1	-0.3		
Zip102B	DRSC17155	-0.3	-0.4		
dpr5	DRSC15766	-0.4	0		
CG1024	DRSC12496	0.9	2.1		
Noc3	DRSC12535	-0.3	1.3		
Spn85F	DRSC14545	0.2	-0.1		
SNRPG	DRSC20207	1.7	2.9		
l(3)80Fj	DRSC20986	0.5	0		
l(3)80Fj	DRSC20989	-0.5	-0.1		
JIL-1	DRSC11200	-0.2	-0.8		
CG30466	DRSC05556	-0.3	-0.1		
lncRNA:bxd	DRSC13176	-0.2	0		
CG31769	DRSC01361	1.3	-0.4		
moody	DRSC18515	-0.4	-0.6		
Dad1	DRSC02263	0	1.1		
Ppn	DRSC15328	-0.6	-0.5		
CG4914	DRSC10458	-0.2	-0.4		
snoRNA:Me28S-C3227a + snoRNA:Me18S-A1061 + snoRNA:Me28S-C3227b + 7 more	DRSC05497	0	0.3	0	0.1
CG8664	DRSC20116	0.3	-0.4		
Zdhhc8	DRSC18044	0.8	1.8		
Zdhhc8	DRSC18122	-0.4	-0.2		
mRF1	DRSC02880	-0.2	-0.3		
EloB	DRSC16663	0.7	-0.2		
Vm34Ca	DRSC03475	-0.2	-0.3		
Atxn7	DRSC00726	-0.4	-0.6		
Ran-like	DRSC10918	-0.3	-0.4		
CG5391	DRSC15790	0.2	-0.1		
CG31523	DRSC12009	-0.6	-0.2		
CG31523	DRSC12337	0	0		
CG3021	DRSC18165	-0.3	0		
CG3021	DRSC18652	-0.3	-0.1		
CG13185	DRSC06310	0.1	0.5		
E(spl)m8-HLH	DRSC16654	-0.5	-0.7		
CG16782	DRSC18118	-0.3	0.4		
CG3740	DRSC18508	-0.4	-0.1		
aus	DRSC13471	0.3	0.8		
aus	DRSC13473	0.6	-0.1		
aus	DRSC15157	0	0.7		
CG4619	DRSC02764	-0.2	-0.6		
CG5849	DRSC15893	0.7	-0.4		
PAN2	DRSC07115	-0.4	-0.4		
CG14965	DRSC08424	-0.1	-0.3		
CG31793	DRSC02605	-0.4	-0.3		
Tsr1	DRSC11821	-0.2	0.5		
lectin-24Db	DRSC00553	-0.3	-0.3		
CG14641	DRSC12227	4.9	3.1		
Grik	DRSC15846	-0.2	-0.2		
Grik	DRSC15847	0.1	-0.2		
LSm1	DRSC04458	-0.2	-1		
CG31869	DRSC02582	-0.2	-0.1		
CG31869	DRSC02674	-0.3	-0.3		
mei-41	DRSC20350	0.2	0.3		
stretch (retired record)	DRSC14347	-0.3	-0.2		
stretch (retired record)	DRSC14512	-0.3	-0.7		
stretch (retired record)	DRSC14541	-0.2	-0.7		
stretch (retired record)	DRSC14542	-0.4	-0.7		
stretch (retired record)	DRSC14543	-0.3	1.5		
CG3744	DRSC15511	0	1.2		
CG14357	DRSC14820	-0.3	1.3		
Rh50	DRSC08692	-0.2	-0.3		
lncRNA:CR32661	DRSC19794	0	0.3		
PpD3	DRSC16796	-0.3	-0.9		
Eig71Ee	DRSC11152	-0.1	0.1		
CG15209	DRSC19655	-0.2	0.3		
indra	DRSC08558	-0.2	-0.7		
CG16959	DRSC10230	-0.3	-0.5		
Atg4b	DRSC15988	-0.4	-0.4		
Vps13B	DRSC15060	-0.2	-0.5		
Lip2	DRSC02577	-0.4	-0.1		
Lip2	DRSC02578	-0.3	-0.3		
mRpS29	DRSC04398	2	1		
RpLP0-like	DRSC06424	-0.4	-0.2		
CG14752	DRSC06488	-0.2	-0.8		
CG4702	DRSC15626	-0.3	-0.4		
Oseg6	DRSC06066	-0.4	-0.5		
Ns3	DRSC18607	-0.2	-0.5		
CG8028	DRSC20075	-0.4	-0.8		
CG2901	DRSC18239	-0.2	0.2		
Rpi	DRSC04583	-0.4	-0.3		
janA	DRSC16972	-0.3	-0.2		
CG33232 (retired record)	DRSC08187	-0.2	-0.1		
CG33232 (retired record)	DRSC08495	2.1	0.6		
Dlg5	DRSC02964	2.8	2.9		
dgrn	DRSC12154	-0.3	-0.5		
CkIIalpha-i3	DRSC08651	-0.1	0		
Hsp70Bb + Hsp70Bbb	DRSC15885	-0.3	-0.2		
CG10576	DRSC09745	-0.4	-0.2		
CG32681	DRSC17646	-0.1	-0.2		
CG42372 + CG30100	DRSC05602	1.9	-0.1		
Jon99Fii + Jon99Cii + Jon99Ciii + 1 more	DRSC15298	-0.5	-0.5		
caly	DRSC07182	-0.3	-0.5		
Herc4	DRSC08631	-0.3	-0.4		

As entered above:
Under “z-score, replicate 1”, Idgf5 [DRSC06919] shows 0
Under “z-score, replicate 1”, dpr5 [DRSC15766] has -0.4
Value for CG3740 [DRSC18508] in “z-score, replicate 2”: -0.1
For “z-score, replicate 2”, Zip102B [DRSC17155] reads -0.4
EloB [DRSC16663], z-score, replicate 1 = 0.7
Atg4b [DRSC15988], z-score, replicate 2: -0.4
